Experimental data as given in PMC6771250.
No constants are given. Whether binding was seen depends on the method and setting. In cells and extracts the contact can be indirect. Some entries that bind do so weakly or less than the wild type. For some of these results: Sequences can lack the tags named with a protein. Each block holds one molecule with its values, some of them ahead of it.

The chains behind the UniProt entries cited, without tags or fusion partners.
UniProt P62491: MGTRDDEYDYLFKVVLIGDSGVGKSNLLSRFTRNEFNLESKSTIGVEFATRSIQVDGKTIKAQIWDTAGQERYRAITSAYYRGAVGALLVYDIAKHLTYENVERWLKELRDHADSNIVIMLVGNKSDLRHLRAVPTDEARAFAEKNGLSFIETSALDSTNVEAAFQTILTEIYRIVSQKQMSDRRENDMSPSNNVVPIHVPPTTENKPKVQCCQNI

What was measured:
[1] = biological target: T1, B Cell Receptor Associated Protein 31 (BCAP31), endogenous (human (endogenous in MDA-MB-231 and MDA-MB-157)) (UniProt P51572); assay: co-IP; endogenous proteins in lysates of MDA-MB-231 or MDA-MB-157 cells; same lysis buffer, 1 ug antibody or control IgG at 4 C overnight, protein-G beads; western blot; for the EGFR IP of Figure 6I control or BCAP31-knockdown MDA-MB-231 cells
T1 sequence: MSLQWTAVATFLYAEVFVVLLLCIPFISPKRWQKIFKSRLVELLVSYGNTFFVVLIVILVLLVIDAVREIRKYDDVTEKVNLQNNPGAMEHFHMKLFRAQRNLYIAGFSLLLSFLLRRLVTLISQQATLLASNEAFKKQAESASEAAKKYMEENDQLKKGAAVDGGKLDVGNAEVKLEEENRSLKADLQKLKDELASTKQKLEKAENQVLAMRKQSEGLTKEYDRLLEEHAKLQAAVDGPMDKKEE

[2] = biological target: T2, B Cell Receptor Associated Protein 31 with C-terminal FLAG tag (BCAP31-FLAG) (UniProt P51572); assay: co-IP; transfected COS-7 cells; lysis in 50 mmol/L Tris pH 7.5, 150 mmol/L NaCl, 1% Nonidet P-40, 1 mmol/L EDTA, 0.25% deoxycholate; 1 ug antibody or control IgG at 4 C overnight, protein-G beads; western blot
T2 sequence: T1 sequence

[3] = biological target: RAB11-HA (UniProt P62491); assay: as above
[4] = biological target: RAB11, endogenous (human (endogenous in MDA-MB-231)) (UniProt P62491); assay: co-IP; endogenous proteins in lysates of MDA-MB-231 or MDA-MB-157 cells; same lysis buffer, 1 ug antibody or control IgG at 4 C overnight, protein-G beads; western blot; for the EGFR IP of Figure 6I control or BCAP31-knockdown MDA-MB-231 cells

Molecule: epidermal growth factor receptor (EGFR), endogenous (from UniProt P00533 25-1210)
binding [1]: binds

Molecule: epidermal growth factor receptor (EGFR), exogenous (from UniProt P00533 25-1210)
binding [2]: binds

Now from value to molecule:

binding [3]: binds
B1: B Cell Receptor Associated Protein 31 with C-terminal FLAG tag (BCAP31-FLAG) (protein, UniProt P51572-1 1-246)
chain: T1 sequence

binding [4]: binds
B2: B Cell Receptor Associated Protein 31 (BCAP31), endogenous (protein, UniProt P51572 1-246)
chain: T1 sequence
